According to US11306331B2, “Processes for the production of hydroxycinnamic acids using polypeptides having tyrosine ammonia lyase activity” (CysBio ApS, priority 2014, dated 2022):
The name of at least one read-out is uncertain.

B1: Flavobacterium johnsoniae FjXAL tyrosine ammonia lyase (Protein GI 146298870), SEQ ID NO: 1, His-tagged (N-terminal tag SEQ ID NO: 11) (Flavobacterium … (protein)
chain: MNTINEYLSLEEFEAIIFGNQKVTISDVVVNRVNESFNFLKEFSGNKVIYGVNTGFGPMAQYRIKESDQIQLQYNLIRSHSSGTGKPLSPVCAKAAILARLNTLSLGNSGVHPSVINLMSELINKDITPLIFEHGGVGASGDLVQLSHLALVLIGEGEVFYKGERRPTPEVFEIEGLKPIQVEIREGLALINGTSVMTGIGVVNVYHAKKLLDWSLKSSCAINELVQAYDDHFSAELNQTKRHKGQQEIALKMRQNLSDSTLIRKREDHLYSGENTEEIFKEKVQEYYSLRCVPQILGPVLETINNVASILEDEFNSANDNPIIDVKNQHVYHGGNFHGDYISLEMDKLKIVITKLTMLAERQLNYLLNSKINELLPPFVNLGTLGFNFGMQGVQFTATSTTAESQMLSNPMYVHSIPNNNDNQDIVSMGTNSAVITSKVIENAFEVLAIEMITIVQAIDYLGQKDKISSVSKKWYDEIRNIIPTFKEDQVMYPFVQKVKDHLINN
B2: Herpetosiphon aurantiacus HaXAL1 tyrosine ammonia lyase (Protein GI 159898407), SEQ ID NO: 2, His-tagged (N-terminal tag SEQ ID NO: 11) (Herpetosiphon … (protein)
chain: MSTTLILTGEGLGIDDVVRVARHQDRVELTTDPAILAQIEASCAYINQAVKEHQPVYGVTTGFGGMANVIISPEEAAELQNNAIWYHKTGAGKLLPFTDVRAAMLLRANSHMRGASGIRLEIIQRMVTFLNANVTPHVREFGSIGASGDLVPLISITGALLGTDQAFMVDFNGETLDCISALERLGLPRLRLQPKEGLAMMNGTSVMTGIAANCVHDARILLALALEAHALMIQGLQGTNQSFHPFIHRHKPHTGQVWAADHMLELLQGSQLSRNELDGSHDYRDGDLIQDRYSLRCLPQFLGPIIDGMAFISHHLRVEINSANDNPLIDTASAASYHGGNFLGQYIGVGMDQLRYYMGLMAKHLDVQIALLVSPQFNNGLPASLVGNIQRKVNMGLKGLQLTANSIMPILTFLGNSLADRFPTHAEQFNQNINSQGFGSANLARQTIQTLQQYIAITLMFGVQAVDLRTHKLAGHYNAAELLSPLTAKIYHAVRSIVKHPPSPERPYIWNDDEQVLEAHISALAHDIANDGSLVSAVEQTLSGLRSIILFR

Columns and labels:
[1] = In vitro kinetics of purified His-tagged enzymes, tyrosine as substrate; format: biochemical; conditions: substrate Tyr, 30° C., purified protein
[2] = In vitro kinetics of purified His-tagged enzymes, phenylalanine as substrate; format: biochemical; conditions: substrate Phe, 30° C., purified protein

Molecule	Kcat/Km [1] [mM⁻¹ s⁻¹]	Kcat/Km [2] [mM⁻¹ s⁻¹]
B1	3.71	0.00123
B2	3.29	0.0061
